1 molecule from patent US20210079067A1 can be followed below.

The chains behind the UniProt entries cited, without tags or fusion partners. Residues count along the entry.
UniProt Q05320, residues 33-650: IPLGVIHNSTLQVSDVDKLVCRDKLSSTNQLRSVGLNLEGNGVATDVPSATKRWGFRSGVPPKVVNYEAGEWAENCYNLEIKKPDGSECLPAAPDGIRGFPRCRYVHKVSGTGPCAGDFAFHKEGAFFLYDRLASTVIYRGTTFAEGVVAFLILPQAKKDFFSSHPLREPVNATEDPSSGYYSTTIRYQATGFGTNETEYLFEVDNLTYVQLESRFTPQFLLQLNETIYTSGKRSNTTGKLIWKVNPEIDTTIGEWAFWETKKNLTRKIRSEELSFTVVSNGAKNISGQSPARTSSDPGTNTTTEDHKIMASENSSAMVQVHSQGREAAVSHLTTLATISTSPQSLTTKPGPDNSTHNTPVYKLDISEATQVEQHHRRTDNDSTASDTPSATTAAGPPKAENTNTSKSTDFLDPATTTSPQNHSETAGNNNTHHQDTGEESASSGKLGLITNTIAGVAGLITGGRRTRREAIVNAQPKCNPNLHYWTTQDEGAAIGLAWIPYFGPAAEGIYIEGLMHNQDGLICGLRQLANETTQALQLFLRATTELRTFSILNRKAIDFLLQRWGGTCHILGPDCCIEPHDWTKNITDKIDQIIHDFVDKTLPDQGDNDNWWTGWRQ

In assay [1] the target is Zaire ebolavirus full-length GP (Zaire ebolavirus) (UniProt Q05320). The assay is described as follows: ELISA, plates coated with purified protein.
Assay [2] shares this target. As to the kind of experiment: ELISA on plates coated with purified full-length Zaire ebolavirus GP, A450. On the technique in general: ELISA stands for enzyme-linked immunosorbent assay.

Results are given in words; binding and its absence hold for the method and conditions named. Some entries that bind do so weakly or less than the wild type.

B1: S1-4-A09 antibody (IgG1 expressed version) (antibody, V domains shown)
VH: QVQLQESGPGLVKPSETLSLTCVVSGGILSSFYWNWIRQPPGKGLEWIGNIYYSGSPNYNASFQSRVAISVDTSKNQISLNLKSVTAADTAMYYCVRASRAYLWGSYRPTALDLWGQGSLVTVSS
VL: SYELTQPPSVSVSPGQTATITCSGDKLGDKYTSWFQQRPGQSPLLVIYQDNKRPSGLPARFSGSNSGNTATLTISGTQAMDEADYLCQVWDSGAVFGGGTKLTVLG
On to B1, for which the binding result in assay [1] and in assay [2] was “binds” each time.
